Source: PubChem BioAssay AID504444 (National Center for Advancing Translational Sciences (NCATS), 2011)
The campaign covered roughly 360,000 compounds. About 7,500 (2.1%) were called active. The inconclusive results got no clear call from the source; some entries with a clear call stand among them for comparison. Calls follow the shape of the dose curve; as a rule, active = well fitted inhibition curve with a large enough effect; inconclusive = small, poorly fitted or top-dose-only effect, or effect the other way; inactive = flat fitted curve, though single readings scatter. A potency beside an inconclusive call is a rough fit, not a confirmed value.

Experiment: Nrf2 qHTS screen for inhibitors; also: nearly all actives have a fitted effect of over 60% in size
Settings: A549 ARE-Fluc reporter, luciferase luminescence, 18-24 h; series mostly up to 46 µM
Procedure, shortened: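 Cells were seeded and rested 2 h, then exposed to compounds for 18-24 h. CellTiter-Fluor was read first as a viability measure. BugLite was added 15 min before the final luminescent read of ARE-luciferase activity in A549 cells.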
Potency is read from the fitted curve at half-maximal effect.

Structure (SMILES) | Potency
CSc1nc(Sc2ccccc2Cl)c2ccccc2n1 | inactive
COc1cc2[nH]c(Cl)c([N+](=O)[O-])c2cc1OC | inactive
CC(=O)c1c(C)oc2ccc(N(C(C)=O)S(=O)(=O)c3ccc(Br)cc3)cc12 | inconclusive: 23.1 µM [falling, single point]
FC(F)(F)c1nc2nncn2c2c1CCCCC2 | inactive
CC(=O)Nc1ccc(N(CC(O)Cn2c3ccccc3c3ccccc32)S(=O)(=O)c2ccc(C)cc2)cc1 (centres undefined) | inconclusive: 20.6 µM [falling, single point]
O=C(O)c1ccccc1NCc1cccnc1 | inconclusive: 7.31 µM [activator, partial curve]
CCOC(=O)c1ccc(NC(=O)c2cc3sccc3n2Cc2ccc(Cl)cc2)cc1 | inconclusive: 32.6 µM [falling, single point]
CCC(C)(C)NC(=O)CN(C(=O)CNS(=O)(=O)c1ccccc1)c1ccc2c(c1)OCCO2 | inconclusive: 3.66 µM [activator, single point]
Cc1ccc(-n2c(=O)c3ccc(C(=O)NCc4ccco4)cc3n(Cc3ccccc3C#N)c2=O)cc1 | inconclusive: 29.1 µM [falling, single point]
COc1ccc(Br)c(C(=O)N2CCN(S(=O)(=O)c3cccs3)CC2)c1 | inconclusive: 7.31 µM [falling, partial curve, poor fit]
CCOC(=O)/C=C/C(=O)N1CCc2ccccc21 | inactive
Cc1ccc(NC(=O)c2ccc(=O)[nH]n2)cc1C | inconclusive: 14.6 µM [activator, partial curve, poor fit]
Cc1ccc2nc(NC(=O)c3ccccc3F)sc2c1 | inconclusive: 1.84 µM [activator, partial curve]
CSc1ccc(CN(C)C(=O)c2ccc(S(=O)(=O)Nc3c(C)n(C)n(-c4ccccc4)c3=O)cc2)cc1 | inconclusive: 14.6 µM [falling, partial curve, poor fit]
Cc1ccccc1C(=O)NC(CC(C)C)C(=O)Nc1ccc(S(N)(=O)=O)cc1 (centres undefined) | inconclusive: 3.66 µM [falling, partial curve, poor fit]
COc1ccc(NC(=O)c2ccc3c(c2)sc2nc(-c4ccc(OC)cc4)cn23)cc1 | inconclusive: 9.2 µM [activator, partial curve]
O=C(C1CCN(S(=O)(=O)c2cccc3nsnc23)CC1)N1CCc2ccccc2C1 | inconclusive: 23.1 µM [falling, partial curve, poor fit]
Cc1ccc(-c2cn(-c3cccc(Cl)c3)c(S(=O)(=O)CC(=O)Nc3ccccc3F)n2)cc1 | inconclusive: 1.03 µM [activator, full curve, poor fit]
Cc1ccc(NC(=S)NNC(=O)c2nn(C)c(C)c2Cl)cc1 | inconclusive: 23.1 µM [activator, partial curve]
CC(C)(C)n1nnnc1C(c1cccc(C(F)(F)F)c1)N1CCOCC1 (centres undefined) | inactive

An excerpt of the results above, for reference:
Structure (SMILES) | Potency
COc1ccc(Br)c(C(=O)N2CCN(S(=O)(=O)c3cccs3)CC2)c1 | inconclusive: 7.31 µM [falling, partial curve, poor fit]
CCOC(=O)/C=C/C(=O)N1CCc2ccccc21 | inactive
Cc1ccc(NC(=O)c2ccc(=O)[nH]n2)cc1C | inconclusive: 14.6 µM [activator, partial curve, poor fit]

(more compounds)

Structure (SMILES) | Potency
COc1ccc(/C=C2\CCn3c2nc2ccccc2c3=O)cc1OC | inconclusive: 0.58 µM [activator, full curve, poor fit]
Cc1ccc(-n2nc3c(=O)n(CCCC(=O)NCCc4ccccc4Cl)nc(C)c3c2C)cc1 | inconclusive: 29.1 µM [falling, single point]
CN(C)c1nc(Oc2ccc(=O)n(-c3ccccc3)n2)nc(N2CCOCC2)n1 | inconclusive: 29.1 µM [falling, single point]
COc1cccc(NC(=O)CN(C)C(=O)c2cccc(S(=O)(=O)N3CCN(c4ccccc4)CC3)c2)c1 | inconclusive: 8.2 µM [falling, partial curve, poor fit]
O=C(NCc1ccccc1)[C@]1(C(F)(F)F)C[C@H](CCCO)CCCO1 | inactive
COc1ccc(CCNC(=O)c2ccc(Cn3c(=O)c4ccccc4n(Cc4cccc(Cl)c4)c3=O)cc2)cc1OC | inconclusive: 1.46 µM [falling, full curve, poor fit]
O=c1c2ccccc2nc(N/N=C/c2ccc(O)cc2)n1O | inconclusive: 18.4 µM [falling, single point]
CC(NC(=O)C1CCC(C(C)(C)C)CC1)C(c1ccccc1)N1CCOCC1 (centres undefined) | inconclusive: 29.1 µM [activator, single point]
COc1cccc(N2CCN(C3CC(=O)N(c4ccc(F)c(Cl)c4)C3=O)CC2)c1 (centres undefined) | inconclusive: 0.58 µM [falling, partial curve, poor fit]
CCN1C[C@@H]2[C@@H]3C(=O)N(Cc4ccccc4)C(=O)[C@@H]3[C@](Cc3ccccc3)(C1=O)N2C(=O)c1ccc(Cl)c(Cl)c1 | inconclusive: 29.1 µM [falling, single point]
COc1ccc(Br)cc1CNC(=O)C1CCCN(c2nc3ccccc3o2)C1 (centres undefined) | inconclusive: 23.1 µM [falling, partial curve, poor fit]
COc1ccc(-c2noc(CCC(=O)N(C)c3ccccc3C)n2)cc1 | active: 20.6 µM
C[C@@H]1CC=C[C@H]2[C@H]1C(=O)N(Cc1ccccc1)[C@H]2c1ccc2ccccc2c1 | active: 20.6 µM
O=C(c1cc2cc(F)ccc2[nH]1)N1CCC(Cc2ccccc2)CC1 | inconclusive: 29.1 µM [activator, single point]
O=C(N[C@H](Cc1cc(=O)[nH]c2ccccc12)C(=O)O)c1ccc(Cl)cc1 | inconclusive: 32.6 µM [activator, single point]
Fc1cccc(Cl)c1/C=C/c1cnc2ccccc2n1 | inconclusive: 1.16 µM [activator, full curve, poor fit]
Cc1nn(Cc2ccc(Cl)c(Cl)c2)c(C)c1NC(=O)c1cc(C2CC2)on1 | inconclusive: 18.4 µM [falling, single point]
NC(=O)c1ccc(-c2nnn(CC(=O)Nc3cccc(S(=O)(=O)N4CCCC4)c3)n2)cc1 | inconclusive: 0.0259 µM [falling, full curve, poor fit]
CC(=O)Nc1ccc(/C=N/OCC(=O)Nc2ccc(C)cc2)cc1 | inactive
